Test: Ca^2+ titration of purified NIR-GECO variants (EGTA-buffered Ca^2+ solutions)
Assay type: binding
Details: Ca^2+ titration of purified protein, 25° C.
Source text: NIR-GECO1 is a near infrared indicator and is engineered from a naturally-monomeric infrared fluorescent proteins (mIFP). NIR-GECO1 has absorbance and emission peaks at 678 and 704 nm, respectively, and undergoes a 90% decrease in fluorescence intensity upon binding Ca^2+, serving as an inverse response indicator contrast to K-GECO1, as shown in FIG. 2B.
To purify NIR-GECO variants for in vitro characterization, the gene encoding variants of interest with a poly-histidine tag on the C terminus, was expressed from the pBAD vector. Bacteria were lysed with a cell disruptor (Constant Systems Ltd) and then centrifuged at 15,000 g for 30 min, and proteins were purified by Ni-NTA affinity chromatography (Agarose Bead Technologies). The buffer was typically exchanged to 10 mM MOPS, 100 mM KCl (pH 7.2) with centrifugal concentrators (GE Healthcare Life Sciences).
Ca^2+ titrations were carried out using EGTA-buffered Ca^2+ solutions (Calcium Calibration Buffer Kit no. 1, Life Technologies). We prepared buffers by mixing a CaEGTA buffer (30 mM MOPS, 100 mM KCl, 10 mM EGTA, 10 mM CaCl2) and an EGTA buffer (30 mM MOPS, 100 mM KCl, 10 mM EGTA) to give free Ca^2+ concentrations ranging from 0 to 39 μM at 25° C. Fluorescence intensities were plotted against Ca^2+ concentrations and fitted by a sigmoidal binding function to determine the Hill coefficient and Kd.

Substance	Hill coefficient
NIR-GECO1: near infrared genetically encoded Ca^2+ indicator engineered from monomeric infrared fluorescent protein mIFP (SEQ ID NO. 6)	1.03
NIR-GECO2: near infrared Ca^2+ indicator sharing 99% sequence identity with NIR-GECO1 (SEQ ID NO. 7)	1.01

Source: patent publication US12601016B2, “Genetically encoded fluorescent indicators under optogenetic control and uses thereof” (LUMISTAR BIOTECHNOLOGY, INC., priority 2018, dated 2026)
